{
  "source": "patent US20140107344A1",
  "about": "“ZINC SALT OF ISOTHIAZOLONE COMPOUND, METHOD FOR REDUCING IRRITATION CAUSED BY ISOTHIAZOLONE COMPOUND, ANTIBACTERIAL AND ANTIFUNGAL METHOD USING ZINC SALT OF ISOTHIAZOLONE COMPOUND, AND ANTIBACTERIAL AND ANTIFUNGAL COMPOSITION” (Nippon Soda Co., Ltd., priority 2007, published 2014)",
  "tested_on": "Aspergillus niger NBRC6342",
  "experiment": "Test for determining minimum concentration for inhibition of growth (agar plate dilution method), Aspergillus niger",
  "type": "cell-based",
  "parameters": "Growth at concentration of active ingredient 50 mg/L / Growth at concentration of active ingredient 100 mg/L / Growth at concentration of active ingredient 150 mg/L / Growth at concentration of active ingredient 200 mg/L / Growth at concentration of active ingredient 250 mg/L / Growth at concentration of active ingredient 500 mg/L: key to the marks not given beside the values",
  "details": "strain not given in Table 2",
  "description": "(Test for Determining Minimum Concentration for Inhibition of Growth)\nFor the test samples, 3 types of samples were used; i.e., the BIT/Zn salt obtained in Example 1 (in the form of a powder containing 79.7% of active ingredients), a BIT material/SC formulation (i.e., Bestcide-NS manufactured by Nippon Soda Co., Ltd. containing 33% of active ingredients), and ZnO (zinc oxide) of 99.0% or greater (manufactured by Wako Pure Chemical Industries, Ltd.). Evaluations were made by conducting an agar plate dilution method using a potato dextrose agar medium. Two fungal strains; i.e., Aspergillus niger NBRC6342 and Cladosporium cladosporioides NBRC6348, were used as microorganisms for the test, and the BIT/Zn salt, BIT and ZnO were used at a concentration of 50 to 1,000 mg/L. The results are shown in Table 2 and Table 3. It should be noted that in Table 3, the results on the analysis of minimum inhibitory concentration (MIC) based on the molecular weights (i.e., MIC values on a molar basis) are shown.",
  "note": "At least one compound was matched to its structure with a doubt left.",
  "data": [
    {"smiles": "O=c1[n-]sc2ccccc12.O=c1[n-]sc2ccccc12.[Zn+2]", "note": "[BIT/Zn salt, zinc salt of BIT]", "values": [
      {"measurement": "Growth at concentration of active ingredient 50 mg/L", "setting": "potato dextrose agar, 50 mg/L", "value": "+++"},
      {"measurement": "Growth at concentration of active ingredient 100 mg/L", "setting": "potato dextrose agar, 100 mg/L", "value": "+++"},
      {"measurement": "Growth at concentration of active ingredient 150 mg/L", "setting": "potato dextrose agar, 150 mg/L", "value": "+++"},
      {"measurement": "Growth at concentration of active ingredient 200 mg/L", "setting": "potato dextrose agar, 200 mg/L", "value": "+++"},
      {"measurement": "Growth at concentration of active ingredient 250 mg/L", "setting": "potato dextrose agar, 250 mg/L", "value": "+++"},
      {"measurement": "Growth at concentration of active ingredient 500 mg/L", "setting": "potato dextrose agar, 500 mg/L", "value": "+++"},
      {"measurement": "Growth at concentration of active ingredient 750 mg/L", "setting": "potato dextrose agar, 750 mg/L", "value": "−"},
      {"measurement": "Growth at concentration of active ingredient 1,000 mg/L", "setting": "potato dextrose agar, 1,000 mg/L", "value": "−"}
    ]}
  ]
}
